Reference: PubChem BioAssay (Tox21)
“And” between values parts separate entries of the source, which are not always exact repeats. Identical values can stand only once. Inconclusive results, whose numbers are uncertain, are shown with a selection of clear calls. Where the call is inconclusive, the potency comes from a doubtful curve fit. The source made the active and inactive calls. Calls come from the whole dose curve; as a rule, active = well fitted cell-killing curve with a large enough effect in the repeat runs; inconclusive = weak or mixed curves, or effect the other way; inactive = flat fitted curve, though single readings scatter.

assay: cAMP Responsive Elements (CRE) small molecule agonists, cell-based qHTS assay: qHTS cell viability counter screen (AID 2060914); settings: CRE-bla HEK293T viability, CellTiter-Glo luminescence, 5 h; series mostly up to 92.4 µM;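 note: viability read after 3 h of compound exposure; nearly all actives have a fitted effect of over 50% in size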
In short: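 CRE-bla HEK 293T cells, plated 18 h at 37 °C, were exposed to compounds for 3 h at 37 °C/5% CO2. Viability was then measured in the same wells by CellTiter-Glo luminescence after 30 min at room temperature.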
% is set by controls: 0 for no effect and ±100 for the full control effect; potency is the fitted concentration of half-maximal effect.

| Compound | Potency | activity change, negative = cytotoxicity |
| --- | --- | --- |
| CC(=O)N1CCN(c2ccc(OC[C@H]3CO[C@](Cn4ccnc4)(c4ccc(Cl)cc4Cl)O3)cc2)CC1 | active: 68.6 µM | – |
| Brc1ccccn1 | inconclusive: 68.6 µM [cytotoxic, partial curve, poor fit] | – |
| COCCOCC(OC)OC | inconclusive: 2.66 µM [cytotoxic, single point] | – |
| Nc1nc2ccccc2[nH]1 | inactive | – |
| CN(C)c1ccc(N=Nc2ccccc2C(=O)O)cc1 | inactive | – |
| CC(C)(CO)COC(=O)C(C)(C)CO | inactive | – |
| Cc1ccc(C(=O)C(C)CN2CCCCC2)cc1 (stereo not given) | inconclusive: 6.68 µM [cytotoxic, full curve, poor fit] | – |
| COc1ccc(C(=O)/C(Br)=C\C(=O)O)cc1 | inconclusive: 68.6 µM | – |
| Nc1ccc2c(O)cc(S(=O)(=O)O)cc2c1 | inconclusive: 21.7 µM [cytotoxic, partial curve, poor fit] | – |
| C=C(C)C(=O)OC(C)C | inactive | – |
| C=C1C2CCC(C2)C1(C)C (stereo not given) | inconclusive: 27.3 µM [rising, partial curve, poor fit] | – |
| O=C(O)c1cc(N=Nc2ccc(S(=O)(=O)Nc3ccccn3)cc2)ccc1O | inconclusive: 54.6 µM [cytotoxic, partial curve] | – |
| COc1cc2[nH]c(=O)[nH]c(=O)c2cc1OC | inconclusive: 0.106 µM [cytotoxic, single point] | – |
| CC(NN)c1ccccc1 (stereo not given) | inconclusive: 1.46 µM [cytotoxic, single point] | – |
| Cc1cc(C)nc(NS(=O)(=O)c2ccc(N)cc2)n1 | inactive | – |
| Sc1nc(S)nc(S)n1 | inactive | – |
| C=CC(=O)OCCCC | inactive | – |
| CC(C#N)(CCC(=O)O)N=NC(C)(C#N)CCC(=O)O (stereo not given) | inconclusive: 61.1 µM [cytotoxic, partial curve, poor fit] | – |
| CC1(CN2CCC(n3c(=O)[nH]c4ccccc43)CC2)OCc2ccccc2-n2cccc21 (stereo not given) | inconclusive: 0.119 µM [rising, single point] | – |
| Oc1ccc(Cl)cc1C1CCCC1 | inconclusive: 61.1 µM [cytotoxic, partial curve, poor fit] | – |

| Compound | Potency | activity change, negative = cytotoxicity |
| --- | --- | --- |
| CCCCC(CC)COC(=O)/C=C/c1ccc(OC)cc1 (stereo not given) | inactive | – |
| O=C1OC(CN2CCOCC2)CN1/N=C/c1ccc([N+](=O)[O-])o1 (stereo not given) | inactive | – |
| Oc1ccccc1 | inconclusive: 0.298 µM [cytotoxic, single point] | – |
| O=C(CCCN1CCC(O)(c2ccc(Br)cc2)CC1)c1ccc(F)cc1 | inconclusive: 0.298 µM [cytotoxic, single point] | – |
| CN(C)CCCNCCCN | inconclusive: 0.609 µM [cytotoxic, single point] | – |
| COc1ccc2[nH]cc(CCNC(C)=O)c2c1 | inconclusive: 77 µM [cytotoxic, single point] | – |
| C#Cc1cccc(Nc2ncnc3cc(OCCOC)c(OCCOC)cc23)c1 | inactive | – |
| CC(=O)OCC(=O)[C@@]1(O)[C@H](C)C[C@H]2[C@@H]3CCC4=CC(=O)C=C[C@]4(C)[C@@]3(F)[C@@H](O)C[C@@]21C | inconclusive: 33.5 µM [cytotoxic, single point] | – |
| Cc1ccc2ccccc2n1 | inactive | – |
| CCc1cc(S(=O)(=O)O)c2cc(C(C)C)cccc1-2 | inconclusive: 33.5 µM [cytotoxic, single point] | – |
| O=S(=O)(O)c1cc(S(=O)(=O)O)c2c(N=Nc3ccccc3)c(O)ccc2c1 | inconclusive: 15.4 µM [cytotoxic, single point] | – |
| CC(=O)N(c1onc(C)c1C)S(=O)(=O)c1ccc(N)cc1 | inactive | – |
| Cc1cc(=O)c2c(O)c3c(O)cc(=O)c4c3c3c(cc(O)c1c23)C(C)(C)C=4O | inconclusive: 1.16 µM [cytotoxic, full curve, poor fit] | – |
| CCCCc1ncc(/C=C(\Cc2cccs2)C(=O)O)n1Cc1ccc(C(=O)O)cc1 | inactive | – |
| C=CCNc1nc(NCC=C)nc(N2CCN(C(c3ccc(F)cc3)c3ccc(F)cc3)CC2)n1 | inconclusive: 4.22 µM [cytotoxic, partial curve] | – |
| CCN(CC)c1ccc(C=O)c(O)c1 | inactive | – |
| Cc1ccc2ccc3cccc4ccc1c2c34 | inconclusive: 43.2 µM [cytotoxic, partial curve, poor fit] | – |
| COc1cc(C(=O)NCc2ccc(OCCN(C)C)cc2)cc(OC)c1OC | inconclusive: 0.266 µM [cytotoxic, single point] | – |
| CCN(CC)CCCC(C)Nc1ccnc2cc(Cl)ccc12 (stereo not given) | – | inactive: -0.2% [at 8.39 µM] and inactive: -0.0045% [at 18.9 µM] |
| Clc1ccccc1C(c1ccccc1)(c1ccccc1)n1ccnc1 | inconclusive: 77 µM [cytotoxic, single point] | – |
